Data reported in the supplement of paper PMC10849652.
Some of the results follow.

Sequences of proteins named here, by UniProt entry; tags and fusion partners are left off. A change or cut given only in a name is not applied to a line headed by its entry.
UniProt Q86YH2: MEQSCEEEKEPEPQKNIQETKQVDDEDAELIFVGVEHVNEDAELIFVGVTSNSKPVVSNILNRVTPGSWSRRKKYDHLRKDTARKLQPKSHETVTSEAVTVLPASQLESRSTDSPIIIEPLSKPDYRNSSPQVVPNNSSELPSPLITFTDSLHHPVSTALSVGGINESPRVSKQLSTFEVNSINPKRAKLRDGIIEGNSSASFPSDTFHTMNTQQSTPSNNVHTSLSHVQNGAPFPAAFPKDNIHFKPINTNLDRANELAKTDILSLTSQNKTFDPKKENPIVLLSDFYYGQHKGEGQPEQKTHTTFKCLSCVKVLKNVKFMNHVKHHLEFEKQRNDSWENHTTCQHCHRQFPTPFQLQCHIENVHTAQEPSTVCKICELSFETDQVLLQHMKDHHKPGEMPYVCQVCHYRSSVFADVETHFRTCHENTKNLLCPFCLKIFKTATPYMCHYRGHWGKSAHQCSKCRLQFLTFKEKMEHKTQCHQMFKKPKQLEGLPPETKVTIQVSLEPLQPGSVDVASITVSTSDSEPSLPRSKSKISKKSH
UniProt Q8IYB9: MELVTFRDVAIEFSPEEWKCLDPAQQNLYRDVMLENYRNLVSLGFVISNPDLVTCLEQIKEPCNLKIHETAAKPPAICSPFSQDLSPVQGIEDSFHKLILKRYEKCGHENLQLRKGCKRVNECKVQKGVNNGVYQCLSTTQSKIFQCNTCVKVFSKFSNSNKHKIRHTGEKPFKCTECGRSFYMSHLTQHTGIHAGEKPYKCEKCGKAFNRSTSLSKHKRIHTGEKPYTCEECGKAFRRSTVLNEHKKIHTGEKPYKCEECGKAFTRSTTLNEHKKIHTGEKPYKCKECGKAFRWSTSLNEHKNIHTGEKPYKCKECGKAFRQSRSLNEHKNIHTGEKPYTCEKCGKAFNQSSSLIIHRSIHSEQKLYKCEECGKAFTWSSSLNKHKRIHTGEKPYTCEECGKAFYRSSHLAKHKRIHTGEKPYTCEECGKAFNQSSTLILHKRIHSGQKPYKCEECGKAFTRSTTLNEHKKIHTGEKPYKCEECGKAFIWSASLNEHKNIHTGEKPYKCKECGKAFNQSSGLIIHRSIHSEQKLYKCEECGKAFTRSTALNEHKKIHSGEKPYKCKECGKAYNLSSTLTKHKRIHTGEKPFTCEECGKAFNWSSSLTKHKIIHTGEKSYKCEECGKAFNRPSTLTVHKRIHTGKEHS
UniProt Q5BKZ1: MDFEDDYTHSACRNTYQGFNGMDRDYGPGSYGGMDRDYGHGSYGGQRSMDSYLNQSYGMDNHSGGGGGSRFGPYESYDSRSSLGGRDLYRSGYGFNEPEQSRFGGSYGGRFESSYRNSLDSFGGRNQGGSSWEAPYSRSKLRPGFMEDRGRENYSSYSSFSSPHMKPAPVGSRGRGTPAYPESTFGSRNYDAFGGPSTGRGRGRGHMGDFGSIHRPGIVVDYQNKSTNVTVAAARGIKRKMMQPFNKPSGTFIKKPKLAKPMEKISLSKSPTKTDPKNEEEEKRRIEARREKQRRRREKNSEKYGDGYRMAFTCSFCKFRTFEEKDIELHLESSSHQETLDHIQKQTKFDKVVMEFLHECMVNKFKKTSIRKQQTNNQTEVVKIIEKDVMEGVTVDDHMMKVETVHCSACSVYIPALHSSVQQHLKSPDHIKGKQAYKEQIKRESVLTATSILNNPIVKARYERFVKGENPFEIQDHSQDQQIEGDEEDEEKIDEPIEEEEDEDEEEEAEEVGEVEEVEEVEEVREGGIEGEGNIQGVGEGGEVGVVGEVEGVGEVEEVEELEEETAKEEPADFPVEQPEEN
UniProt Q16587: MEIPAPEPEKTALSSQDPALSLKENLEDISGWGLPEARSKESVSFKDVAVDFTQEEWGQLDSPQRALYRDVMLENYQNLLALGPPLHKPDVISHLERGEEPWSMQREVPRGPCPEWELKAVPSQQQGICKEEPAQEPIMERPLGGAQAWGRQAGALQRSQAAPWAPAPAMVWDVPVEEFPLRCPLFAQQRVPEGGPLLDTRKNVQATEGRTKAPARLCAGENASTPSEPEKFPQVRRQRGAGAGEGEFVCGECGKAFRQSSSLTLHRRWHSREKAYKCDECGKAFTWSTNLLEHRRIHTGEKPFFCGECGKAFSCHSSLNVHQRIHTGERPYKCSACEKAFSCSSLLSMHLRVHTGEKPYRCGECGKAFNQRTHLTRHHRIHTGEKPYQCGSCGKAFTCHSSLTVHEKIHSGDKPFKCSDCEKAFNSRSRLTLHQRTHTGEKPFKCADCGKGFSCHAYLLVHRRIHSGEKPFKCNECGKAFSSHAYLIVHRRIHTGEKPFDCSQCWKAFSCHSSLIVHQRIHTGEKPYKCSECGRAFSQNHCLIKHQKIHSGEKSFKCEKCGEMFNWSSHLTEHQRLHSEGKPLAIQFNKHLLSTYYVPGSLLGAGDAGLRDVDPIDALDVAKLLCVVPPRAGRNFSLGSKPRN
UniProt Q96BR6: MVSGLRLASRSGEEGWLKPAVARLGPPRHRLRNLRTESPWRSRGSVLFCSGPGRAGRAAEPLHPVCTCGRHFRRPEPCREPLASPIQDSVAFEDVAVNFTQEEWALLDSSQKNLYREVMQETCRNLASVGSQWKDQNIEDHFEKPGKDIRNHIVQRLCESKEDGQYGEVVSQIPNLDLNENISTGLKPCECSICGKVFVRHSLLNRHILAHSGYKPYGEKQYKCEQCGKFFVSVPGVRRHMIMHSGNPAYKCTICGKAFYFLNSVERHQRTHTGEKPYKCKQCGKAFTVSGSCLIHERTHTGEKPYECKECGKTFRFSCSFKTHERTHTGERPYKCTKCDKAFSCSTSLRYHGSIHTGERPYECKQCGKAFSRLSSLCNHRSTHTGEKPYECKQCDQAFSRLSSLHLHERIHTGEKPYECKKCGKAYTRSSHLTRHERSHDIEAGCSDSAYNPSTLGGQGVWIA
UniProt Q8N0Y2: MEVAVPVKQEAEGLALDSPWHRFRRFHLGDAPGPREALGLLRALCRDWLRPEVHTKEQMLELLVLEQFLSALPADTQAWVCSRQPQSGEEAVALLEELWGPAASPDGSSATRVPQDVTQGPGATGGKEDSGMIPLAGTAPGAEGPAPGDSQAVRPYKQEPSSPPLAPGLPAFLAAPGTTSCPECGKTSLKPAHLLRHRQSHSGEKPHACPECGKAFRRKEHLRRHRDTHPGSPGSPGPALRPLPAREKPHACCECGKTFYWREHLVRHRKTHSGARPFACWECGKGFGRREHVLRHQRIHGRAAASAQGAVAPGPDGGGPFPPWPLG
UniProt P17098: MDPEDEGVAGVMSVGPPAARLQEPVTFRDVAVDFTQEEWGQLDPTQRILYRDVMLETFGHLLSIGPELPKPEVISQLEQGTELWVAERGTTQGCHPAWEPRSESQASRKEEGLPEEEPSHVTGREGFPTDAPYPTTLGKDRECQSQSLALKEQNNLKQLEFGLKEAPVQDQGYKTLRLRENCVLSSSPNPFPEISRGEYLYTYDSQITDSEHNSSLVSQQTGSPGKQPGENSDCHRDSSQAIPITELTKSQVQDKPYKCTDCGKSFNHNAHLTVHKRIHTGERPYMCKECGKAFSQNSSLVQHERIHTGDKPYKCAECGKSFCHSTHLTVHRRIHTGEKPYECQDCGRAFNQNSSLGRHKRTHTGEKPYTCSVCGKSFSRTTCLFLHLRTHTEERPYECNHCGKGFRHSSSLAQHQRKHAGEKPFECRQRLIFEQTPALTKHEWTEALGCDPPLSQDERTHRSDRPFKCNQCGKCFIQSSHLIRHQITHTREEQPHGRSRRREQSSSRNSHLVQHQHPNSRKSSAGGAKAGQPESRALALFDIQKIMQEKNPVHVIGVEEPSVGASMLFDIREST
UniProt Q92610: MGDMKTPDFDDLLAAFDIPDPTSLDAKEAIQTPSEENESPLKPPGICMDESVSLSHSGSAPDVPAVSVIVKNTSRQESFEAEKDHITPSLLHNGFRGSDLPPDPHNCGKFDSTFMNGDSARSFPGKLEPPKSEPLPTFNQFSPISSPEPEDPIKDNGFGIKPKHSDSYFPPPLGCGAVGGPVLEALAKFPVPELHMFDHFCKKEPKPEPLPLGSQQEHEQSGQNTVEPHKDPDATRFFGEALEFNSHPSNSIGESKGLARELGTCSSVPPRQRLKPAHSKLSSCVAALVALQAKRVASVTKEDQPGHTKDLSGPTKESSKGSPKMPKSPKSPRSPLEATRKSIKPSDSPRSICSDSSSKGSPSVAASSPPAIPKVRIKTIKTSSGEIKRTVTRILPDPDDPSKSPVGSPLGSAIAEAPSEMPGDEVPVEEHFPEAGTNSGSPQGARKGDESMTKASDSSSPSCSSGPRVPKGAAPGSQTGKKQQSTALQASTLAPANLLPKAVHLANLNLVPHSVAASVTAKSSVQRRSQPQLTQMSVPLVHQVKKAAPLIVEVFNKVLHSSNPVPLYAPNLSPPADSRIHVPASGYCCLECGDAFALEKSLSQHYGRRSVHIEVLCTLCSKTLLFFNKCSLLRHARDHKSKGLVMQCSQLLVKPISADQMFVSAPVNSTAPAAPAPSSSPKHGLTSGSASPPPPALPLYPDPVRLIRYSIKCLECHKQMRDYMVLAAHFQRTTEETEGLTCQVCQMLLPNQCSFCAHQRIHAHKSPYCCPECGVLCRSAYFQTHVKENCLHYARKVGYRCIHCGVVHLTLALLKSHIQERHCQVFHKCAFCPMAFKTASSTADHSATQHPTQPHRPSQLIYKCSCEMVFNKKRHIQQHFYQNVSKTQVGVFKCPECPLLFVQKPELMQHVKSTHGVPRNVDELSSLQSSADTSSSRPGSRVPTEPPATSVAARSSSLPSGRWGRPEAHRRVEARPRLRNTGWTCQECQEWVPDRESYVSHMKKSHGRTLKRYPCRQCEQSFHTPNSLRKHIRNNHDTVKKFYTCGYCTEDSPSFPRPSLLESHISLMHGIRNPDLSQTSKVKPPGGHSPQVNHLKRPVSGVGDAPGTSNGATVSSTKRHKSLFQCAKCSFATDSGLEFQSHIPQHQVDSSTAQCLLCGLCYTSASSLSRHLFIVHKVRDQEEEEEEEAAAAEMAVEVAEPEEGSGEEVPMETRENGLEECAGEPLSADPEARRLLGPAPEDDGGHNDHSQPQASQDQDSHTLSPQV
UniProt Q9UL40: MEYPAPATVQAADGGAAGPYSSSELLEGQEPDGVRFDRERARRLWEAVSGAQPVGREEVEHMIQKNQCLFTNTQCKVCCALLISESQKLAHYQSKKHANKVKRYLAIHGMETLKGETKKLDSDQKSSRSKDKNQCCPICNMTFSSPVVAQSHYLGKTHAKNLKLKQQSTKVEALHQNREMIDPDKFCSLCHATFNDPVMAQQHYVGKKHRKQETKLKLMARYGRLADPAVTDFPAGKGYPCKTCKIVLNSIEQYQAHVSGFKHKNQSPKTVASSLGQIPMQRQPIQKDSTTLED
ZNF654, A0A1B0GWA0, UniProt A0A1B0GWA0, whole entry, looked up: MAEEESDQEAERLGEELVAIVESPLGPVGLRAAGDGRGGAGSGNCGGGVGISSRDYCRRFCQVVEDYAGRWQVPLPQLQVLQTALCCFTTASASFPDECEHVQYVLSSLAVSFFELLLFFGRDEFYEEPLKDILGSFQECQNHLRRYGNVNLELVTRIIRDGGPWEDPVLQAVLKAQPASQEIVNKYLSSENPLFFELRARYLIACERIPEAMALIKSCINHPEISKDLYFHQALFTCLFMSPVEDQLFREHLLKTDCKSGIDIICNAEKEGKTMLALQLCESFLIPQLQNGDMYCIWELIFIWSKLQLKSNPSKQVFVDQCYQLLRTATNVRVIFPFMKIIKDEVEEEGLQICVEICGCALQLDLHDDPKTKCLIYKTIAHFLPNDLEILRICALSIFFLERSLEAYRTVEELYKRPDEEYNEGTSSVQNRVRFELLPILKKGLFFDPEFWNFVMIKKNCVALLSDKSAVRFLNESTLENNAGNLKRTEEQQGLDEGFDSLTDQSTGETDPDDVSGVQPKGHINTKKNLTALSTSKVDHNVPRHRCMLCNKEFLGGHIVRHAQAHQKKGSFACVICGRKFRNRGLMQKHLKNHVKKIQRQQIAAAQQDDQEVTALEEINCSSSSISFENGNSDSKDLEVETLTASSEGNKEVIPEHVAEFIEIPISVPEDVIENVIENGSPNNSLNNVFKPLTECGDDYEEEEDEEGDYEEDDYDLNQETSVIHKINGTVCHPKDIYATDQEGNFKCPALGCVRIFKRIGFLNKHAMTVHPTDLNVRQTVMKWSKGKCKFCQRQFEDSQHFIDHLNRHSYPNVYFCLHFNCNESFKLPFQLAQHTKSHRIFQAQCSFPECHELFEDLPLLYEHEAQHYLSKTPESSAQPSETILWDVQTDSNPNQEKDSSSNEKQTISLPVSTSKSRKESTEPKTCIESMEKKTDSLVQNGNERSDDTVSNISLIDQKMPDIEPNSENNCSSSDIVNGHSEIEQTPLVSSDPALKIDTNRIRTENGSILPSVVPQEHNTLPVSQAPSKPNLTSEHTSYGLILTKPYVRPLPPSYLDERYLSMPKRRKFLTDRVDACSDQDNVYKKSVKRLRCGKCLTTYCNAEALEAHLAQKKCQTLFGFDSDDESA

Compound: CCn1cc(-c2ccnc3[nH]c(-c4cccc(CN(C)C)c4)cc23)c(-c2ccc(NC(=O)N(C)C)cc2)n1
Test: log2 fold change, soluble protein after heating vs DMSO (PISA); higher = thermal stabilisation; K562 lysate, 10 uM; active = over 0.2 and 3.5 SD of the protein, either way, in both replicates (recomputed)
How it was run: (§1)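 K562 pellets were dounce-homogenised in PBS pH 7.4 containing 1 mM MgCl2, and the crude extract, at 1 mg/mL protein, was exposed to 10 μM compound for 30 min. Aliquots were heated for 3 min across 48°C-58°C, pooled, brought to 0.5% NP-40 at 4°C and spun at 21,000xg for 90 min, with the supernatant taken as soluble protein. TMTpro 16plex LC-MS/MS with equalised channel sums quantified that protein. Values are log-two fold changes in thermal stability relative to solvent controls, taken from duplicates.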

Row | Target | log2 fold change
1 | ZNF639 (UniProt Q9UID6) | inactive: 0.106
2 | ZNF280B (UniProt Q86YH2) | inactive: 0.176
3 | ZNF48 (UniProt Q96MX3) | inactive: -0.102
4 | ZSWIM7 (UniProt Q19AV6) | inactive: 0.142
5 | ZNF595 (UniProt Q8IYB9) | inactive: -0.25
6 | ZNF326 (UniProt Q5BKZ1) | inactive: 0.052
7 | ZNF74 isoform 5 (UniProt Q16587) | inactive: 0.029
8 | ZNF771 (UniProt Q7L3S4) | inactive: 0.006
9 | ZYG11A (UniProt Q6WRX3) | inactive: -0.16
10 | ZNF655 isoform 2 (UniProt Q8N720) | inactive: 0.007
11 | ZNF669 (UniProt Q96BR6) | inactive: -0.111
12 | ZNF444 (UniProt Q8N0Y2) | inactive: 0.146
13 | ZNF8 (UniProt P17098) | inactive: 0.026
14 | ZNF592 (UniProt Q92610) | inactive: 0.044
15 | ZNF346 (UniProt Q9UL40) | inactive: 0.017
16 | ZNF324 (UniProt O75467) | inactive: 0.026
17 | ZNF280D (UniProt Q6N043) | inactive: 0.014
18 | ZNF574 isoform 2 (UniProt Q6ZN55) | inactive: -0.128
19 | ZNF654, A0A1B0GWA0 | inactive: -0.119

Compound: CN1CCC(CNc2ccc3ncc(-c4cccc(OC(F)(F)F)c4)n3n2)CC1
Test: as above
How it was run: as §1

Row | Target | log2 fold change
20 | ZNF639 (UniProt Q9UID6) | inactive: -0.198
21 | ZNF280B (UniProt Q86YH2) | inactive: 0.047
22 | ZNF48 (UniProt Q96MX3) | inactive: 0.072
23 | ZSWIM7 (UniProt Q19AV6) | inactive: -0.009
24 | ZNF595 (UniProt Q8IYB9) | inactive: -0.04
25 | ZNF326 (UniProt Q5BKZ1) | inactive: 0.038
26 | ZNF74 isoform 5 (UniProt Q16587) | inactive: 0.065
27 | ZNF771 (UniProt Q7L3S4) | inactive: -0.028
28 | ZYG11A (UniProt Q6WRX3) | inactive: 0.011
29 | ZNF655 isoform 2 (UniProt Q8N720) | inactive: 0.1
30 | ZNF669 (UniProt Q96BR6) | inactive: -0.005
31 | ZNF444 (UniProt Q8N0Y2) | inactive: -0.085
32 | ZNF8 (UniProt P17098) | inactive: -0.061
33 | ZNF592 (UniProt Q92610) | inactive: -0.065
34 | ZNF346 (UniProt Q9UL40) | inactive: -0.051
35 | ZNF324 (UniProt O75467) | inactive: 0.045
36 | ZNF280D (UniProt Q6N043) | inactive: 0.13
37 | ZNF574 isoform 2 (UniProt Q6ZN55) | inactive: -0.002
38 | ZNF654, A0A1B0GWA0 | inactive: -0.034

Compound: CN1CCN(CCOc2cc(OC3CCOCC3)c3c(Nc4c(Cl)ccc5c4OCO5)ncnc3c2)CC1 [saracatinib]
Test: as above
How it was run: as §1

Row | Target | log2 fold change
39 | ZNF800 (UniProt Q2TB10) | inactive: 0.052
40 | ZNF639 (UniProt Q9UID6) | inactive: -0.026
41 | ZNF785 (UniProt A8K8V0) | inactive: 0
42 | ZNF101 (UniProt Q8IZC7) | inactive: -0.024
43 | ZSWIM7 (UniProt Q19AV6) | inactive: 0.124
44 | ZNF445 (UniProt P59923) | inactive: -0.101
45 | ZNF326 (UniProt Q5BKZ1) | inactive: 0.026
46 | ZNF74 isoform 5 (UniProt Q16587) | inactive: -0.2
47 | ZNF687 (UniProt Q8N1G0) | inactive: -0.165
48 | ZNF669 (UniProt Q96BR6) | inactive: -0.061
49 | ZNF444 (UniProt Q8N0Y2) | inactive: -0.002
50 | ZNF692 isoform 5 (UniProt Q9BU19) | inactive: -0.039
51 | ZNF8 (UniProt P17098) | inactive: 0.057
52 | ZNF592 (UniProt Q92610) | inactive: -0.014
53 | ZNF346 (UniProt Q9UL40) | inactive: 0.001
54 | ZNF384 (UniProt Q8TF68) | inactive: 0.218

Compound: CN1CCN(c2nc(C3=C(c4c[nH]c5ccccc45)C(=O)NC3=O)c3ccccc3n2)CC1 [sotrastaurin]
Test: as above
How it was run: as §1

Row | Target | log2 fold change
55 | ZNF76 (UniProt P36508) | inactive: -0.015
56 | ZNF639 (UniProt Q9UID6) | inactive: 0.046
57 | ZNF280B (UniProt Q86YH2) | inactive: 0.013
58 | ZNF101 (UniProt Q8IZC7) | inactive: 0.095
59 | ZNF595 (UniProt Q8IYB9) | inactive: 0.062
60 | ZNF326 (UniProt Q5BKZ1) | inactive: 0
61 | ZNF687 (UniProt Q8N1G0) | inactive: 0.068
62 | ZNF668 isoform 2 (UniProt Q96K58) | inactive: -0.053
63 | ZNF669 (UniProt Q96BR6) | inactive: -0.165
64 | ZNF444 (UniProt Q8N0Y2) | inactive: -0.077
65 | ZNF8 (UniProt P17098) | inactive: -0.232
66 | ZNF592 (UniProt Q92610) | inactive: 0.04
67 | ZNF346 (UniProt Q9UL40) | inactive: 0.011
68 | ZNF324 (UniProt O75467) | inactive: 0.091
69 | ZNF384 (UniProt Q8TF68) | inactive: 0.049
70 | ZNF574 isoform 2 (UniProt Q6ZN55) | inactive: 0.059
71 | ZNF654, A0A1B0GWA0 | inactive: -0.025
